# PubChem BioAssay AID504774 | Drosophila RNAi Screening Center | 2011
# Purpose: 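Knock-downs that shift viability of MMS-exposed cells relative to untreated ones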 (primary screen)
# System: Drosophila Kc167 cells
# Reagent: long dsRNA against Drosophila genes, about 0.25 µg dsRNA per well
# Timing: about 6 days: 3 days knock-down, then 3 days with or without MMS
# Conditions: methyl methanesulphonate 0.004% (w/v) for 3 days after knock-down
# Measured: 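ATP-dependent luminescence as a measure of live cells in MMS-exposed wells, quantile normalised within each plate, with replicate values also given as a mean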
# Reading the numbers: mean viability with MMS and viability with MMS: higher = more surviving cells after MMS
# In all, the deposit lists about 23,000 reagents; shown is an unselected part of those with a known target gene and a result. 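Values are quantile-normalised luminescence on an arbitrary scale; higher means more cells surviving MMS.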 A plus sign joins genes that one reagent is predicted to hit. Further read-outs or replicates are left out here. No sequences are given here.
target gene,dsRNA,mean viability with MMS,"viability with MMS, replicate 1"
Hsp68,DRSC16712,3.65e6,4.17e6
ACXB,DRSC00845,3.56e6,4.09e6
skl,DRSC10050,3.52e6,3.95e6
Pde6,DRSC16401,3.51e6,3.97e6
Pde6,DRSC16402,3.66e6,4.11e6
Pde6,DRSC16403,3.49e6,3.98e6
cnir,DRSC00499,3.87e6,4.45e6
CG17163,DRSC20901,3.47e6,3.86e6
cora,DRSC07597,3.35e6,3.77e6
Mst89B,DRSC16748,3.51e6,4.06e6
CG15036,DRSC17968,3.50e6,3.94e6
KP78b + KP78a,DRSC23338,3.09e6,3.31e6
KP78b + KP78a,DRSC23341,3.01e6,3.88e6
CG33253,DRSC19547,3.71e6,4.18e6
CG33253,DRSC20053,3.63e6,4.03e6
Rh7,DRSC10529,3.52e6,3.90e6
CG2113,DRSC08554,3.54e6,4.03e6
CG42238,DRSC03180,3.51e6,4.18e6
CG13064,DRSC09947,3.59e6,3.96e6
CG7071 + Muted,DRSC16189,3.44e6,3.79e6
ZC3H3,DRSC10696,3.05e6,3.47e6
CG6791,DRSC16118,3.51e6,3.98e6
a,DRSC04667,2.85e6,3.58e6
a,DRSC04668,3.45e6,3.98e6
Rca1,DRSC03407,3.15e6,3.42e6
CG5934,DRSC15922,3.54e6,3.98e6
alpha-Est3,DRSC12615,3.47e6,3.95e6
eIF2beta,DRSC11341,3.18e6,3.57e6
CG42541,DRSC17973,3.54e6,4.01e6
CG42541,DRSC18119,2.65e6,3.34e6
CG42541,DRSC18120,3.65e6,4.10e6
HP4,DRSC10958,3.47e6,3.93e6
sta,DRSC18838,3.34e6,3.82e6
Mrp4,DRSC14931,3.82e6,4.18e6
ab,DRSC03478,2.92e6,3.48e6
ab,DRSC23179,3.30e6,3.75e6
Klp67A,DRSC11205,3.39e6,3.97e6
CG13995,DRSC00907,3.60e6,4.10e6
CG13995,DRSC02327,3.56e6,4.02e6
CG13995,DRSC22767,3.40e6,3.95e6
Trmt6,DRSC03272,3.71e6,4.05e6
ens,DRSC08454,3.64e6,4.08e6
Spred,DRSC05976,3.63e6,4.09e6
CG31606,DRSC01012,3.44e6,4.00e6
tzn,DRSC11755,3.57e6,4.12e6
shtd,DRSC20166,3.43e6,3.48e6
RpL22-like,DRSC04582,3.61e6,4.05e6
EndoB,DRSC07345,3.39e6,3.76e6
CG14646,DRSC12232,3.65e6,4.08e6
CG14646,DRSC21316,3.50e6,3.95e6
Adh + Adhr,DRSC01862,3.50e6,3.83e6
Adh + Adhr,DRSC01863,3.60e6,4.21e6
ItgaPS4,DRSC06630,3.47e6,4.09e6
CG14294,DRSC14774,3.52e6,4.04e6
CG7768,DRSC10914,3.68e6,4.23e6
CG33217,DRSC22907,3.50e6,3.92e6
noc,DRSC03580,3.41e6,3.84e6
Drak,DRSC19778,3.55e6,4.03e6
Drak,DRSC23298,3.75e6,4.23e6
r + CG13012,DRSC19531,3.61e6,4.11e6
CheA86a,DRSC12839,3.56e6,3.96e6
CG15597,DRSC12283,3.53e6,3.95e6
CG11257,DRSC06068,3.49e6,3.85e6
dmrt99B,DRSC15045,3.00e6,3.54e6
dmrt99B,DRSC22977,3.18e6,3.72e6
CG3308,DRSC15474,3.57e6,4.09e6
Mpcp2,DRSC11226,3.49e6,3.96e6
yellow-g2,DRSC08338,3.57e6,3.98e6

An excerpt from above, reduced to “mean viability with MMS”.
Adh + Adhr [DRSC01863] = 3.60e6
ItgaPS4 [DRSC06630] = 3.47e6
CG14294 [DRSC14774] = 3.52e6
